Data from article PMC3521694.
Results are given in words; binding and its absence hold for the method and conditions named. In cells and extracts the contact can be indirect.

Sequences of proteins named here, by UniProt entry; tags and fusion partners are left off. Residues count along the entry.
UniProt Q5ZRP9, residues 1-316: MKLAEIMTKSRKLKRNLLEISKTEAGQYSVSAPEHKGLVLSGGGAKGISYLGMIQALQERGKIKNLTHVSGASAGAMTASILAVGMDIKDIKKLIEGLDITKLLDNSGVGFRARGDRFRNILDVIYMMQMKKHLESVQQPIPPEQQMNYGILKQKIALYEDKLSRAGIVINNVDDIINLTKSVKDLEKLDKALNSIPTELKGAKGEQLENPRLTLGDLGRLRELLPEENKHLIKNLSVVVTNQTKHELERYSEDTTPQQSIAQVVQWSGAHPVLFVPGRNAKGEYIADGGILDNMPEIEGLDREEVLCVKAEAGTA

Molecular target: T1, endogenous Rab5b of RAW264.7 macrophages (mouse (endogenous in RAW264.7)) (UniProt P61021)
T1 sequence: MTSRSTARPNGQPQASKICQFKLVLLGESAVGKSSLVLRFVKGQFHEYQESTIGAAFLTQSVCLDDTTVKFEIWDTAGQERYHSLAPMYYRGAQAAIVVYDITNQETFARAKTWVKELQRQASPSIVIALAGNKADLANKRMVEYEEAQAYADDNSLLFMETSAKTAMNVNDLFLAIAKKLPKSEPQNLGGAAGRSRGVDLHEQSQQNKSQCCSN
Assay: co-IP

Question: How did the binding turn out when “Flag-tagged VipD(1-316) (from UniProt Q5ZRP9 1-316) (domain or fragment)” was run?
Answer: The binding was “no binding”.
